System: MRC-5 cells
Assay: Incorporation of 3H-BMAA radiolabel into cell proteins (TCA precipitation, liquid scintillation counting)
Assay type: cell-based, human
Conditions: 3H-BMAA 31.25 nM
Method: MRC-5 cells were incubated with ^3H-BMAA (31.25 nM) in HBSS containing 10% FCS. After 2, 4, and 16 hours, cells were washed three times in phosphate buffered saline and lysed by freeze-thawing in Triton X-100. The protein concentration in the lysate was determined using the bicinchoninic acid assay (BCA) (Smith, et al., Anal Biochem 150, 76-85 (1985)) (and radiolabel in the cell lysate quantified by liquid scintillation counting (LSC). Cell proteins were then isolated by trichloroacetic acid (TCA) (5%) precipitation washed three times in TCA (5%) and dissolved in formic acid. […]
To examine the ability of individual amino acids to reduce incorporation or radiolabel into proteins, MRC-5 cells were incubated with ^3H-BMAA (31.25 nM) for 16 hours in the presence of individual amino acids (250 μM) and the radiolabel present in the cell proteins assessed as before. […] Incorporation of radiolabel was determined relative to cells incubated in medium containing no serine. MRC-5 cells were then incubated with ^3H-BMAA (31.25 nM) for 16 hours in HBSS alone, HBSS containing all 20 protein amino acids (400 μM) or 19 protein amino acids except L-serine and the amount of radiolabel in cell protein assessed as before.

SMILES: CNC[C@H](N)C(=O)O [^3H-BMAA]
- radiolabel in cell lysates (uptake of radiolabel by cells) (HBSS with 10% FCS (amino acid depleted), 2, 4 and 16 hours): time-dependent increase
- radiolabel associated with cell proteins (HBSS with 10% FCS, 2, 4 and 16 hours): a proportion of which was associated with cell proteins

Source: patent US11974551B2, “L-serine compositions, methods and uses for treating neurodegenerative diseases and disorders” (priority 2011, dated 2024)
